Measurements: PMC2747011, “Soybean GmPHD-Type Transcription Regulators Improve Stress Tolerance in Transgenic Arabidopsis Plants”
For at least one entry, the source does not settle the construct or the ends of the probe. For part of these data: A weaker result is weaker than the reference pair of the same experiment. For part of these data: Protein sequences can lack the tags named with them.

Experiments:
Test in all cases: EMSA
GST-GmPHD2 (Glycine max) = conditions: reduced by 10x unlabeled probe; probe annealed in 50 mM NaCl; competitor in ten-fold excess; recombinant protein; protein details: GST (N-term, pGEX-4T-1)
GST-GmPHD3 (Glycine max) = conditions: reduced by 10x unlabeled probe; probe annealed in 50 mM NaCl; competitor in ten-fold excess; recombinant protein; protein details: GST (N-term, pGEX-4T-1)
GmPHD4 VP (Glycine max) = target: T1, GmPHD4 VP (Glycine max) (UniProt I1M961); conditions: slight, plus non-specific binding; probe annealed in 50 mM NaCl; competitor in ten-fold excess; recombinant protein; protein details: GST (N-term, pGEX-4T-1)
T1 sequence (looked up, limits assumed): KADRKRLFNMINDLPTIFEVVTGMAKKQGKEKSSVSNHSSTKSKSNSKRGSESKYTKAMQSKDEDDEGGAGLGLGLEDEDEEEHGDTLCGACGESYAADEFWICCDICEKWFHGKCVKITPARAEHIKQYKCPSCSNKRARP

GST-GmPHD1 (Glycine max) = conditions: reduced by 10x unlabeled probe; probe annealed in 50 mM NaCl; competitor in ten-fold excess; recombinant protein; protein details: GST (N-term, pGEX-4T-1)
[1] = target: T2, GmPHD4 PHD domain (Glycine max) (UniProt I1M961); conditions: probe annealed in 50 mM NaCl; competitor in ten-fold excess; recombinant protein; protein details: GST (N-term, pGEX-4T-1)
T2 sequence (looked up, limits assumed): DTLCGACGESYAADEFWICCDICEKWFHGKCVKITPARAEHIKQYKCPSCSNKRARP

GST-GmPHD4 (Glycine max) = conditions: reduced by 10x unlabeled probe, strong binding; probe annealed in 50 mM NaCl; competitor in ten-fold excess; recombinant protein; protein details: GST (N-term, pGEX-4T-1)

“AATTCGGATCCGTGGAGGTGGAGGTGGAGGTGGAGGTGGAGGGTACCGAGCT / CGGTACCCTCCACCTCCACCTCCACCTCCACCTCCACGGATCCG [5x GTGGAG probe]”: binds (GST-GmPHD2 (Glycine max)); binds (GST-GmPHD3 (Glycine max)); binds more weakly (GmPHD4 VP (Glycine max)). “AATTCGGATCCGTGGAGGTGGAGGTGGAGGTGGAGGTGGAGGGTACCGAGCT / CGGTACCCTCCACCTCCACCTCCACCTCCACCTCCACGGATCCG [5x GTGGAG probe]”: binds (GST-GmPHD1 (Glycine max)); binds more weakly [1]; binds (GST-GmPHD4 (Glycine max)).
